Data taken from PMC7322359.

Target: StAR Related Lipid Transfer Domain Containing 10 (rat (endogenous in INS1 (832/13)))
Assay: co-IP; endogenous STARD10 immunoprecipitated from INS1 (832/13) cells; Kir6.2 detected by Western (immuno-)blot (Supplemental Figure 4)

- binding: binds
B1: ATP-sensitive inward rectifier potassium channel 11 (protein, UniProt P70673 1-390)
chain: MLSRKGIIPEEYVLTRLAEDPTEPRYRTRERRARFVSKKGNCNVAHKNIREQGRFLQDVFTTLVDLKWPHTLLIFTMSFLCSWLLFAMVWWLIAFAHGDLAPGEGTNVPCVTSIHSFSSAFLFSIEVQVTIGFGGRMVTEECPLAILILIVQNIVGLMINAIMLGCIFMKTAQAHRRAETLIFSKHAVITLRHGRLCFMLRVGDLRKSMIISATIHMQVVRKTTSPEGEVVPLHQVDIPMENGVGGNSIFLVAPLIIYHVIDSNSPLYDLAPSDLHHHQDLEIIVILEGVVETTGITTQARTSYLADEILWGQRFVPIVAEEDGRYSVDYSKFGNTVKVPTPLCTARQLDEDRSLLDALTLASSRGPLRKRSVAVAKAKPKFSISPDSLS

No constants are given. Whether binding was seen depends on the method and setting. Binding seen in cells or lysates may run through a third protein. A result given as binding can be weak or reduced; the word gives no strength.
